Assay results: the supplement of paper PMC8728848
The list shows a part of the results.

Columns and labels:
Test in all cases: glycan array binding signal (z-score within array); higher = stronger binding
Settings in all cases: glycan notation: IUPAC condensed, linker removed
[1] = molecular target: Neu5Ac(a2-3)Gal(b1-3)GlcNAc(b1-6)GalNAc
Procedure, shortened: (§1)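 The binding signal is a Z-score computed within each array and averaged over linkers. Arrays of the same protein sequence at different concentrations or buffers were also averaged together. Data originate from 3228 arrays in the Consortium for Functional Glycomics database, kept only where the protein sequence was available.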

[2] = molecular target: Neu5Ac(a2-3)Gal(b1-3)GlcNAc6S
Procedure, shortened: as §1

[3] = molecular target: Neu5Ac(a2-3)Gal(b1-3)[Fuc(a1-4)]GlcNAc
Procedure, shortened: as §1

[4] = molecular target: Neu5Ac(a2-3)Gal(b1-3)[Fuc(a1-4)]GlcNAc(b1-3)Gal(b1-3)[Fuc(a1-4)]GlcNAc
Procedure, shortened: as §1

[5] = molecular target: Neu5Ac(a2-3)Gal(b1-3)[Fuc(a1-4)]GlcNAc(b1-3)Gal(b1-4)[Fuc(a1-3)]GlcNAc
Procedure, shortened: as §1

[6] = molecular target: Neu5Ac(a2-3)Gal(b1-3)[GlcNAc(b1-6)]GalNAc
Procedure, shortened: as §1

[7] = molecular target: Neu5Ac(a2-3)Gal(b1-3)[Neu5Ac(a2-6)]GalNAc
Procedure, shortened: as §1

[8] = molecular target: Neu5Ac(a2-3)Gal(b1-3)[Neu5Ac(a2-6)]GlcNAc(b1-3)[Fuc(a1-3)[Gal(b1-4)]GlcNAc(b1-6)]Gal(b1-4)Glc
Procedure, shortened: as §1

[9] = molecular target: Neu5Ac(a2-3)Gal(b1-3)]Neu5Ac(a2-3)Gal(b1-4)]GlcNAc
Procedure, shortened: as §1

Neu5Ac(a2-3)Gal(b1-4)Glc = molecular target: Neu5Ac(a2-3)Gal(b1-4)Glc
Procedure, shortened: as §1

[10] = molecular target: Neu5Ac(a2-3)Gal(b1-4)GlcNAc
Procedure, shortened: as §1

[11] = molecular target: Neu5Ac(a2-3)Gal(b1-4)GlcNAc(b1-2)Man
Procedure, shortened: as §1

[12] = molecular target: Neu5Ac(a2-3)Gal(b1-4)GlcNAc(b1-2)Man(a1-3)[GlcNAc(b1-4)][Neu5Ac(a2-3)Gal(b1-4)GlcNAc(b1-2)Man(a1-6)]Man(b1-4)GlcNAc(b1-4)GlcNAc
Procedure, shortened: as §1

[13] = molecular target: Neu5Ac(a2-3)Gal(b1-4)GlcNAc(b1-2)Man(a1-3)[Neu5Ac(a2-3)Gal(b1-4)GlcNAc(b1-2)Man(a1-6)]Man(b1-4)GlcNAc(b1-4)GlcNAc
Procedure, shortened: as §1

[14] = molecular target: Neu5Ac(a2-3)Gal(b1-4)GlcNAc(b1-2)Man(a1-3)[Neu5Ac(a2-3)Gal(b1-4)GlcNAc(b1-2)Man(a1-6)]Man(b1-4)GlcNAc(b1-4)[Fuc(a1-6)]GlcNAc
Procedure, shortened: as §1

[15] = molecular target: Neu5Ac(a2-3)Gal(b1-4)GlcNAc(b1-2)Man(a1-3)[Neu5Ac(a2-6)Gal(b1-4)GlcNAc(b1-2)Man(a1-6)]Man(b1-4)GlcNAc(b1-4)GlcNAc
Procedure, shortened: as §1

[16] = molecular target: Neu5Ac(a2-3)Gal(b1-4)GlcNAc(b1-2)[Neu5Ac(a2-3)Gal(b1-4)GlcNAc(b1-4)]Man(a1-3)[GlcNAc(b1-4)][Neu5Ac(a2-3)Gal(b1-4)GlcNAc(b1-2)[Neu5Ac(a2-3)Gal(b1-4)GlcNAc(b1-6)]Man(a1-6)]Man(b1-4)GlcNAc(b1-4)GlcNAc
Procedure, shortened: as §1

[17] = molecular target: Neu5Ac(a2-3)Gal(b1-4)GlcNAc(b1-2)[Neu5Ac(a2-3)Gal(b1-4)GlcNAc(b1-4)]Man(a1-3)[GlcNAc(b1-4)][Neu5Ac(a2-3)Gal(b1-4)GlcNAc(b1-4)Man(a1-6)]Man(b1-4)GlcNAc(b1-4)GlcNAc
Procedure, shortened: as §1

[18] = molecular target: Neu5Ac(a2-3)Gal(b1-4)GlcNAc(b1-2)[Neu5Ac(a2-3)Gal(b1-4)GlcNAc(b1-6)]Man(a1-6)[Neu5Ac(a2-3)Gal(b1-4)GlcNAc(b1-2)Man(a1-3)][GlcNAc(b1-4)]Man(b1-4)GlcNAc(b1-4)GlcNAc
Procedure, shortened: as §1

[19] = molecular target: Neu5Ac(a2-3)Gal(b1-4)GlcNAc(b1-3)Gal
Procedure, shortened: as §1

[20] = molecular target: Neu5Ac(a2-3)Gal(b1-4)GlcNAc(b1-3)Gal(b1-3)GlcNAc
Procedure, shortened: as §1

[21] = molecular target: Neu5Ac(a2-3)Gal(b1-4)GlcNAc(b1-3)Gal(b1-4)GlcNAc
Procedure, shortened: as §1

[22] = molecular target: Neu5Ac(a2-3)Gal(b1-4)GlcNAc(b1-3)Gal(b1-4)GlcNAc(b1-2)Man(a1-3)[Neu5Ac(a2-3)Gal(b1-4)GlcNAc(b1-3)Gal(b1-4)GlcNAc(b1-2)Man(a1-6)]Man(b1-4)GlcNAc(b1-4)GlcNAc
Procedure, shortened: as §1

[23] = molecular target: Neu5Ac(a2-3)Gal(b1-4)GlcNAc(b1-3)Gal(b1-4)GlcNAc(b1-3)Gal(b1-4)GlcNAc
Procedure, shortened: as §1

[24] = molecular target: Neu5Ac(a2-3)Gal(b1-4)GlcNAc(b1-3)Gal(b1-4)GlcNAc(b1-3)Gal(b1-4)GlcNAc(b1-2)Man(a1-3)[Neu5Ac(a2-3)Gal(b1-4)GlcNAc(b1-3)Gal(b1-4)GlcNAc(b1-3)Gal(b1-4)GlcNAc(b1-2)Man(a1-6)]GalNAc
Procedure, shortened: as §1

[25] = molecular target: Neu5Ac(a2-3)Gal(b1-4)GlcNAc(b1-3)Gal(b1-4)GlcNAc(b1-3)GalNAc
Procedure, shortened: as §1

[26] = molecular target: Neu5Ac(a2-3)Gal(b1-4)GlcNAc(b1-3)Gal(b1-4)GlcNAc(b1-3)[Neu5Ac(a2-3)Gal(b1-4)GlcNAc(b1-3)Gal(b1-4)GlcNAc(b1-6)]GalNAc
Procedure, shortened: as §1

[27] = molecular target: Neu5Ac(a2-3)Gal(b1-4)GlcNAc(b1-3)Gal(b1-4)GlcNAc(b1-6)[Gal(b1-3)]GalNAc
Procedure, shortened: as §1

[28] = molecular target: Neu5Ac(a2-3)Gal(b1-4)GlcNAc(b1-3)Gal(b1-4)[Fuc(a1-3)]GlcNAc
Procedure, shortened: as §1

[29] = molecular target: Neu5Ac(a2-3)Gal(b1-4)GlcNAc(b1-3)GalNAc
Procedure, shortened: as §1

B1: R2-fiber (Pseudomonas aeruginosa), Q9S576 (protein)
chain: HHHHHHKVAKDLVVSLAYQVRTEDGVLVDESPVSAPLDYLHGHGSLISGLETALEGHEVGDKFDVAVGANDAYGQYDENLVQRVPKDVFMGVDELQVGMRFLAETDQGPVPVEITAVEDDHVVVDGNHMLAGQNLKFNVEVVAIREATEEELAHGHVHGAHDHHHDHDHDGCCGGHGHDHGHEHGGEGCCGGKGNGGCGCHENLYFQGVTAGMALAATDIPGLDASKLVSGVLAEQRLPVFARGLATAVSNSSDPNTATVPLMLTNHANGPVAGRYFYIQSMFYPDQNGNASQIATSYNATSEMYVRVSYAANPSIREWLPWQRCDIGGSFTKEADGELPGGVNLDSMVTSGWWSQSFTAQAASGANYPIVRAGLLHVYAASSNFIYQTYQAYDGESFYFRCRHSNTWFPWRRMWHGGDFNPSDYLLKSGFYWNALPGKPATFPPSAHNHDVGQLTSGILPLARGGVGSNTAAGARSTIGAGVPATASLGASGWWRDNDTGLIRQWGQVTCPADADASITFPIPFPTLCLGGYANQTSAFHPGTDASTGFRGATTTTAVIRNGYFAQAVLSWEAFGR
glycan array binding signal (z-score) [1]: -0.599 | glycan array binding signal (z-score) [2]: 0.439 | glycan array binding signal (z-score) [3]: 0.079 | glycan array binding signal (z-score) [4]: -0.192 | glycan array binding signal (z-score) [5]: -0.701 | glycan array binding signal (z-score) [6]: -0.889 | glycan array binding signal (z-score) [7]: -0.402 | glycan array binding signal (z-score) [8]: 0.499 | glycan array binding signal (z-score) [9]: -0.347 | glycan array binding signal (z-score) (Neu5Ac(a2-3)Gal(b1-4)Glc): -0.261 | glycan array binding signal (z-score) [10]: 0.039 | glycan array binding signal (z-score) [11]: -0.09 | glycan array binding signal (z-score) [12]: -0.269 | glycan array binding signal (z-score) [13]: 0.569 | glycan array binding signal (z-score) [14]: 5.23 | glycan array binding signal (z-score) [15]: -0.424 | glycan array binding signal (z-score) [16]: -0.702 | glycan array binding signal (z-score) [17]: -0.543 | glycan array binding signal (z-score) [18]: -0.558 | glycan array binding signal (z-score) [19]: -0.851 | glycan array binding signal (z-score) [20]: -0.08 | glycan array binding signal (z-score) [21]: -0.303 | glycan array binding signal (z-score) [22]: -0.592 | glycan array binding signal (z-score) [23]: -0.146 | glycan array binding signal (z-score) [24]: 0.308 | glycan array binding signal (z-score) [25]: -0.526 | glycan array binding signal (z-score) [26]: -0.406 | glycan array binding signal (z-score) [27]: -0.722 | glycan array binding signal (z-score) [28]: -0.816 | glycan array binding signal (z-score) [29]: -0.287
